Results reported in US7067254B2, “Diagnosis and treatment of inflammation and hyperactive immune conditions” (Board of Regents, The University of Texas System, priority 2001, dated 2006).
Some results were stated once for a whole list of compounds, not compound by compound.

System: Pam 212 keratinocytes
Experiment: ATP and ADP release from Pam 212 keratinocytes after skin irritant chemicals (luciferin-luciferase, pyruvate kinase)
Type: cell-based, mouse
Protocol: FIGS. 3A, 3B, & 3C. […] (FIG. 3A), Pam 212 keratinocytes were treated with croton oil (CO), benzalkonium chloride (BAC), or ethyl phenylpropiolate (EPP) at the indicated concentrations or exposed to UVB irradiation at the indicated doses. […] (FIG. 3C), Pam 212 keratinocytes and XS52 LC were co-cultured at the indicated cell densities and treated for 10 min with PBS alone or with 0.0015% BAC. All data shown in this figure are representative sets of results (mean±SD, n=3) from three independent experiments. * p<0.05; ** p<0.01 (two-tailed Student's t-test).
As the amount of ATP is directly proportional to the light emitted, quantification of the emitted light provides a measure of the amount of ATP. […] Cellular ATP release is then measured by: obtaining cells growing in culture; replacing the culture medium with a buffer; adding the ATP releasing agent (chemical irritant or a modulator of an NTPDase-mediated immune response); obtaining a sample of the buffer surrounding the cells after allowing sufficient time for ATP release by the cell in response to the irritant or modulator of an NTPDase-mediated immune response; adding luciferin and luciferase to this buffer; and quantitating the light released using a luminometer. A negative control can comprise obtaining the same reading with no cells; and/or obtaining the same reading with no added ATP releasing agent. […]

| Compound | time within which significant ATP release was observed |
| --- | --- |
| benzalkonium chloride | 5 to 10 min |
| CCOC(=O)C#Cc1ccccc1 [ethyl phenylpropiolate] | 5 to 10 min |
